PubChem BioAssay AID1259405 | NCATS | 2018

Assay: 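Mouse-designed siRNAs used to find CHO productivity engineering targets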 (primary screen)
System: Chinese hamster CHO-K1 ovary cells with stable secreted eGFP expression
Reagents: single siRNA against mouse genes, 0.8 pmol siRNA per well (2 µl of 400 nM stock)
Duration: 3 days
Read-out: 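Per-well intracellular GFP measured by laser scanning cytometry, plus viability from ATP luminescence, each relative to plate median of non-targeting control wells, in %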
Scale: GFP, % of control: higher = more GFP per well, higher productivity; viability (ATP), % of control: higher = more viable cells (more ATP)
Call rule: 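a knock-down is called active if GFP reaches 120% or more of non-targeting control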
The whole screen tested about 50,000 reagents; below is a part drawn at random. About 4,000 of all reagents (8%) count as active. 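Mouse siRNA library applied to hamster cells; one well for each siRNA.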 A number with no mark means an inactive call. The numbers tell different reagents against one gene apart.

Target gene,siRNA no.,"GFP, % of control","viability (ATP), % of control"
Bbs7,1,52,50.4
Bbs7,2,92.6,78.6
Bbs7,3,78.8,81.9
Arhgap12,1,125 (active),64.5
Arhgap12,2,50.5,118
Arhgap12,3,93.7,108
Ccer1,1,89.9,88.4
Ccer1,2,80.3,50.4
Ccer1,3,92.6,71.2
Cd28,1,117,79.1
Cd28,2,55.7,48
Cd28,3,83.7,58.5
Gast,1,81.1,83.8
Gast,2,41.8,46.4
Gast,3,66.8,59.7
Sf3b6,1,119,116
Sf3b6,2,38.8,89.4
Sf3b6,3,77,42.9
Cyb5b,1,113,95
Cyb5b,2,76.7,58.7
Cyb5b,3,84.1,52.4
Ahsa1,1,43.6,39.5
Ahsa1,2,78.3,79.7
Ahsa1,3,75.7,103
Greb1,1,96,85.8
Greb1,2,130 (active),113
Greb1,3,95.1,93
Ces1e,1,76.1,39.2
Ces1e,2,70.4,78.4
Ces1e,3,54.6,60.1
Or5ak20,1,58.1,28.1
Or5ak20,2,72.3,89.4
Or5ak20,3,44.8,71
Mtcl3,1,68.1,88.9
Mtcl3,2,47.6,59.9
Mtcl3,3,97.1,142
Mrps31,1,80.6,68.8
Mrps31,2,61.3,90.2
Mrps31,3,56.6,77.1
Fam20a,1,53.9,57.3
Fam20a,2,79.3,94.6
Fam20a,3,104,90.9
Mucl2,1,129 (active),145
Mucl2,2,66.9,111
Mucl2,3,74.1,130
Gpbp1l1,1,38.4,34.8
Gpbp1l1,2,71.6,75.7
Gpbp1l1,3,91.9,101
Nr2c2,1,101,88.6
Nr2c2,2,65.9,71.4
Nr2c2,3,121 (active),64.6

Quoted from above, 10 entries:
Target gene,siRNA no.,"GFP, % of control","viability (ATP), % of control"
Or5ak20,1,58.1,28.1
Or5ak20,2,72.3,89.4
Or5ak20,3,44.8,71
Mtcl3,1,68.1,88.9
Mtcl3,2,47.6,59.9
Mtcl3,3,97.1,142
Mrps31,1,80.6,68.8
Mrps31,2,61.3,90.2
Mrps31,3,56.6,77.1
Fam20a,1,53.9,57.3

The listing continues.
Target gene,siRNA no.,"GFP, % of control","viability (ATP), % of control"
Sft2d2,1,42.8,38
Sft2d2,2,66.5,98.1
Sft2d2,3,58.6,71.5
Dctn2,1,88.1,61.8
Dctn2,2,85.1,97.4
Dctn2,3,30.1,94.4
Mcrs1,1,43,85.3
Mcrs1,2,40.7,90
Mcrs1,3,99.5,70.6
Dlgap2,1,73.9,53.7
Dlgap2,2,129 (active),78.2
Taf15,1,60.3,58.3
Taf15,2,61.6,95.7
Taf15,3,77.7,63.1
Rgcc,1,126 (active),161
Rgcc,2,50.2,65.1
Rgcc,3,28.6,49.6
9830163H01Rik,1,128 (active),53.6
9830163H01Rik,2,79.4,74.5
9830163H01Rik,3,78.6,76
Acp5,1,98.6,85.3
Acp5,2,82.5,56.5
Acp5,3,112,58.5
Ckm,1,72,67.1
Adgrb3,1,139 (active),96.5
Adgrb3,2,57.2,59
Adgrb3,3,85.5,62.6
Pih1d1,1,123 (active),113
Pih1d1,2,107,55.9
Pih1d1,3,48.6,63.2
Wapl,1,66.1,55
Wapl,2,70.4,81.4
Wapl,3,112,111
